## Primary screen of a compound library

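Whole-parasite assay of Trypanosoma brucei over 72 hours; the read-out is not stated. Compounds at 30 µM. Higher reads as stronger inhibition (inferred: compounds with an IC50 in retests scored well above the rest). Values scatter widely below zero; nearly all retest evidence comes from the higher of the two concentrations used. About 64,000 compounds were tested under these conditions; 1.5% (about 940) showed 50% or more at least once.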

The filed quantity is “Percent Effect” (%). The record does not define 0% and 100%; most values in the screen are far below 50% and negative numbers occur (in some assays of this library far below -100). This is an unselected part of the compounds tested.

| compound | Percent Effect |
|---|---|
| `CC(C)(C)CC(=O)Nc1ncn(CC(=O)NCc2ccccc2)n1` | -8.107 |
| `CCc1nnc2n1CCN(C(=O)c1ccc(-c3ccco3)nc1C)C2` | 11.56 |
| `COc1ncccc1NC(=O)N1CCC(CN2CCOCC2)CC1` | -0.8164 |
| `Cc1cc(N2CCC(N(C)C(=O)Nc3ccccc3)CC2)nc(C)n1` | -64.67 |
| `CCOCCN1CCN(CC(=O)N2CCCC2)CC1CC` (stereo not given) | 7.325 |
| `Cc1nc(Cn2c3c(ccc2=O)CC(N)CC3)cs1` (stereo not given) | -19.31 |
| `O=C(c1c(F)cccc1F)N1CCC[C@@H]1Cn1c(=O)oc2ccccc21` | -2.329 |
| `Cn1cc(-c2cc(-c3cnn(C)c3)n(CC(=O)NC3CC3)n2)cn1` | -25.18 |
| `O=C(O)C(F)(F)F.O=C(O)C(F)(F)F.[H][C@@]12CCCO[C@]1([H])[C@H](N(C)Cc1ccco1)CN(Cc1nccs1)C2` | -5.251 |
| `O=C(NCC(F)(F)F)C1CSCN1S(=O)(=O)c1ccccc1F` (stereo not given) | -6.004 |
| `CSC1(CNC(=O)N(C)Cc2sccc2C)CCOCC1` | -116.1 |
| `O=C(O)C(F)(F)F.O=C(O)C(F)(F)F.c1ccc(CN2CCn3c(Cn4cncn4)cnc3C2)nc1` | -42.5 |
| `CCN1CCOC(CNCc2ccccn2)C1` (stereo not given) | 23.16 |
| `CSCc1noc(C2CCC(=O)N(CCc3ccccc3)C2)n1` (stereo not given) | 12.88 |
| `CCn1ncc2c1CCCC2NCc1cccc2c1OCCCO2` (stereo not given) | -4.042 |
| `Cc1ncc(CN(C)C(=O)c2ccc(N3CCOCC3)c(F)c2)s1` | -8.848 |
| `CCOC(=O)c1ccc(N2CCN(Cc3c(C)nn(C)c3Cl)CC2)nc1` | 11.08 |
| `O=C(NC[C@H]1OC[C@@H](NCc2ccccc2)[C@@H]1O)Nc1ccc(F)cc1` | 0.8211 |
| `O=C(O)C(F)(F)F.[H][C@@]12COC[C@]1([H])[C@@H](OCc1csc(C)n1)CN2C(=O)c1cnoc1C` | -6.639 |
| `COc1c(C)cnc(CN(C)C(=O)c2ccc(C3CCCO3)s2)c1C` (stereo not given) | -18.49 |
| `Br.Cc1cccc(N(CC(=O)c2ccccc2)C2=NCCCCC2)c1` | 2.19 |
| `CC(=O)N1CCCC1c1cc(N2CCN(C3CCCC3)CC2)cc(C)n1` (stereo not given) | 13.42 |
| `COCCNC(=O)c1cc(F)ccc1NS(C)(=O)=O` | -45.38 |
| `Cc1ccc(CNC(=O)CN(CCC(N)=O)c2ccc(F)cc2)cc1` | -12.87 |
| `CN(C)C(=O)c1ccc2c(c1)N(C)C(CC(=O)NCCC(C)(C)C)CO2` (stereo not given) | 22.23 |
| `O=c1[nH]c(CCN2CCCC(Cn3cncn3)C2)nc2ccccc12` (stereo not given) | 20.1 |
| `Cc1n[nH]c(C2CN(C(=O)c3ccon3)CCO2)n1` (stereo not given) | 5.486 |
| `O=C(c1ccncc1)N1CCCC1C1CCN(Cc2ccccc2)CC1` (stereo not given) | -114.8 |
| `CNc1cc(-c2cccc(CN)c2)c2cc[nH]c2n1` | -19.07 |
| `CCCn1nnnc1CN(c1ccc(C)cc1)C(C)C` | 5.874 |
| `Cc1nnc(N2CCCC3(CN(c4ccccn4)CCO3)C2)o1.O=C(O)C(F)(F)F` (stereo not given) | 1.863 |
| `CCC(NC(=O)CCNC(=O)c1ccccc1F)c1cc(C)ccn1` (stereo not given) | -15.83 |
| `O=C(O)C(F)(F)F.[H][C@]12CCN(C(=O)c3ccco3)[C@@]1([H])CC[C@@H](COCCN1CCCC1)O2` | 43.22 |
| `Cc1ccc(N2CCCC(Nc3nn4cc(C)nc4s3)C2)nn1` (stereo not given) | -101.3 |
| `CN(Cc1ncc[nH]1)C(=O)C(C)(C)NC(=O)c1cccs1` | -18.25 |
| `CS(=O)(=O)NC1CCN(C(=O)c2[nH]c3ccc(Cl)cc3c2Cl)CC1` | 0.6969 |
| `OC(CNC1CCSCC1)c1cccc(OCc2ccccc2)c1` (stereo not given) | -20.69 |
| `Cc1noc(C)c1CN1C[C@@H](C(=O)O)[C@H](c2ccccc2)C1` | -10.95 |
| `CCCc1nc(CN2CCN(Cc3noc(CCC)n3)CC2)no1` | 21.36 |
| `CCS(=O)(=O)c1ncc(CN(C)Cc2ccccn2)n1CCOC` | 13.66 |
| `O=C(O)C(F)(F)F.[H][C@@]12C[C@@H](C(=O)NC(C)C)C[C@@]1([H])N(Cc1cccs1)CCO2` | 19.47 |
| `[H][C@@]12CCC(=O)N(CCc3ccccn3)[C@]1([H])CCN(c1ncc(F)cn1)C2` | -17.32 |
| `NS(=O)(=O)CC1CCCN1CCOc1ccccc1F` (stereo not given) | 6.748 |
| `Cc1noc(Cl)c1CC(=O)NCCOc1ccc(F)cc1F` | -0.6021 |
| `CC(=O)N1CCC2(CCCN(S(=O)(=O)c3ccc(F)cc3)C2)C1` (stereo not given) | 12.78 |
| `COc1ccc(Nc2nc(N)c(C(C)=O)s2)cc1OC` | -7.377 |
| `Cc1cc(NC(C)C(=O)NCc2ccccc2)nc(-c2ccncc2)n1` (stereo not given) | -37.72 |
| `COCCOCC(=O)N1CCC2(CCCN(C3CCOCC3)C2=O)C1` (stereo not given) | -63.82 |
| `CCCN1CCC(Cc2noc(-c3[nH]cnc3C)n2)CC1` | -14.68 |
| `CCC(CC)c1cc(CNC(=O)N2CCN(CC)CC2)on1` | 11.42 |
| `COC(=O)C1CN(CC(=O)Nc2cccc(OC)c2)c2ccccc21` (stereo not given) | -15.21 |
| `CN(C)CCN1CC(C(=O)N2CCC(c3cc(=O)[nH]cn3)CC2)CC1=O` (stereo not given) | -9.648 |
| `CCOCC1CN(C(=O)N2CCCC2)Cc2cnn(C)c21` (stereo not given) | -4.788 |
| `CC(C)c1nc(C2CCCN2Cc2ccn(C)c(=O)c2)no1` (stereo not given) | 18.4 |
| `CSc1ccsc1C(=O)NC(C)c1ccc2c(c1)CCC(=O)N2` (stereo not given) | -34.38 |
| `FC(F)Oc1ccc(CN2CCOC3(CCOCC3)C2)cc1Cl` | -3.877 |
| `Cc1ccc(C(CNCc2ccncc2)N2CCOCC2)s1` (stereo not given) | -57.65 |
| `CCc1nnc(C2Cc3ccccc3CN2Cc2cc(C)no2)o1` (stereo not given) | -2.967 |
| `CCNC(c1ccc(Br)cc1)c1cccnc1` (stereo not given) | -7.246 |
| `CCN1CC2(CC1=O)CN(Cc1ccco1)CCN(C(=O)N(C)C)C2.O=C(O)C(F)(F)F` (stereo not given) | -8.808 |
| `COCCN1CCn2c(CN(C)C(C)C)cnc2C1.O=C(O)C(F)(F)F.O=C(O)C(F)(F)F` | 0.5782 |
| `c1ccc(COc2cccc(CNC3CCc4ncnn4C3)c2)cc1` (stereo not given) | -7.485 |
| `COc1ccccc1OCc1cc(C(=O)N2CCN[C@H](C)C2)n[nH]1` | 11.12 |
| `CC(C)(N)c1cn([C@@H]2c3ccccc3C3(CCNCC3)[C@H]2O)nn1` | -18.12 |
| `CC1CCN(C(=O)c2cnc(CC3CCCN(C)C3)cn2)CC1` (stereo not given) | 10.05 |
| `CNc1nc(C2CCCN2C(C)=O)nc2c1CN(C1CCCC1)CC2` (stereo not given) | -12.33 |
| `O=C(O)C(F)(F)F.[H][C@]12CCC[C@@H](CNc3nccn3C)[C@@]1([H])CN(Cc1nccs1)C2` | -44.21 |
| `Cc1c(NC(=O)N(C)CCn2cnnc2)cccc1OC1CCCC1` | -29.73 |
| `[H][C@@]12COC[C@]1([H])[C@H](N(CC)CC)CN2Cc1cnn(C)c1` | -10.57 |
| `COCCC(=O)N1CCC2(COCc3cnc(-c4cccnc4)nc32)C1` (stereo not given) | -39.53 |
| `CCOc1ncccc1NC(=O)N1CCc2ccccc2C1` | -0.6079 |
| `COc1cccc(CNC(C)C)c1OCc1ccc(C)cc1.Cl` | -4.618 |
| `Cn1cnc(S(=O)(=O)Nc2cc(C(N)=O)ccc2Cl)c1` | 3.89 |
| `CC(=O)NCCNC(=O)Nc1cccc(Cl)c1SC(F)F` | -46.94 |
| `CN(c1cccnn1)C1CCN(C(=O)Cc2c[nH]c3ccccc23)CC1` | 1.763 |
| `COCCCN1Cc2cccc(NC(=O)c3ccccc3Cl)c2C1` | 7.9 |
| `COC(=O)c1cc(C(=O)N2CCC(C)CC2)n(-c2ccccc2)n1` | 8.519 |
| `Cc1nc(CCC(N)=O)cc(C2CCCCN2S(C)(=O)=O)n1` (stereo not given) | 5.056 |
| `COc1ccc(NC(=O)Cn2nc(C)c(C)cc2=O)cc1OC` | -10.01 |
| `CCN(C(=O)CCOC)C(c1ccc(Cl)cc1)c1ccccn1` (stereo not given) | -14.69 |
| `CCOCCN1CCN(c2ccc(CN(C)C)cn2)CC1` | -5.326 |
| `CCC(CC)CN1CCC2(CCCN(c3ncccn3)C2)C1` (stereo not given) | -3.466 |
| `O=C(Cc1ccccc1)NCc1ncc(-c2ccccc2C(=O)O)cn1` | -18.15 |
| `CC(C(=O)Nc1sccc1C(N)=O)N(C)CCOc1ccccc1` (stereo not given) | -27.97 |
| `COc1cccc(CN(C)Cc2ccc(C#N)cc2)c1OC` | 1.908 |

Some entries from above, unchanged:

Cc1noc(Cl)c1CC(=O)NCCOc1ccc(F)cc1F gave -0.6021%.
FC(F)Oc1ccc(CN2CCOC3(CCOCC3)C2)cc1Cl gave -3.877%.
NS(=O)(=O)CC1CCCN1CCOc1ccccc1F (stereo not given) gave 6.748%.
CSC1(CNC(=O)N(C)Cc2sccc2C)CCOCC1 gave -116.1%.
O=C(NC[C@H]1OC[C@@H](NCc2ccccc2)[C@@H]1O)Nc1ccc(F)cc1 gave 0.8211%.
Cn1cnc(S(=O)(=O)Nc2cc(C(N)=O)ccc2Cl)c1 gave 3.89%.

The values are deposited in ChEMBL (CHEMBL3988442, “University of Dundee, Small-Polar-MMV Screening Library” (2021)).